Source: article PMC7108934 (ChemPlusChem, 2019)

System: MCF-7 cells (human breast carcinoma)
Assay: MTT cytotoxicity assay, MCF-7
Type: cell-based
Details: read-out: (IC50 ± SD) MCF-7, at least 72 h incubation, mean ± SD

Question: For `N.N.[Cl][Pt][Cl]` [Cisplatin], which IC50 is on record?
Answer: The IC50 was 11.6 ± 1.66 µM.
